Data reported in article PMC11812572.
No constants are given. Whether binding was seen depends on the method and setting. Tags and fused reporters may be left off the sequences shown.

Molecular target: mScarlet-tagged human NuMA C-terminal fragment aa 1701-1981, mScarlet-NuMA^(C-term S1) (human) (UniProt Q14980)
Assay: mass photometry; TwoMP mass photometer; 5-20 nM protein in the respective TIRF microscopy assay buffer without methylcellulose; monomer to dimer; both purified

B1: mScarlet-tagged human NuMA C-terminal fragment aa 1701-1981, mScarlet-NuMA^(C-term S1) (domain or fragment, UniProt Q14980-1 1701-1981)
chain: QVATDALKSREPQAKPQLDLSIDSLDLSCEEGTPLSITSKLPRTQPDGTSVPGEPASPISQRLPPKVESLESLYFTPIPARSQAPLESSLDSLGDVFLDSGRKTRSARRRTTQIINITMAKKLDVEEPDSANSSFYSTRSAPASQASLRATSSTQSLARLGSPDYGNSALLSLPGYRPTTRSSARRSQAGVSSGAPPGRNSFYMGTCQDEPEQLDDWNRIAELQQRNRVCPPHLKTCYPLESRPSLSLGTITDEEMKTGDPQETLRRASMQPIQIAEGTGI
- binding: no binding (tested: 5-20 nM)
